{"source": "PubChem BioAssay AID1224830 (NIAID, 2016)", "assay": "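Genes whose knock-down alters the TNF-alpha reporter response to LPS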 (primary screen)", "system": "human THP-1 monocytic leukaemia cells, TNF dual-luciferase reporter clone, PMA-differentiated to macrophage-like cells", "reagent": "siRNA pool against human genes, 50 nM", "duration": "LPS for 4 h, given about 3 days after siRNA transfection", "treatment": "bacterial LPS (TLR4 ligand), 10 ng/ml", "read-out": "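Ratio of firefly to renilla light, scaled to the plate median and expressed as a robust z-score per replicate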", "direction": "TNF reporter robust z-score: higher = stronger TNF reporter response to LPS", "rule for the call": "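a well is active when its z-score exceeds 2.8 or falls below -1.5; control wells carry no call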", "note": "Here is one part, drawn at random, of about 18,000 reagents. About 2,900 of all reagents (16%) count as active. 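Calls are made per well; low scores hint the gene aids the LPS response, high scores that it dampens it.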 A number with no mark means an inactive call. Repeated entries: four replicate wells of each siRNA pool. No sequences are given here."}
{"Gene":"XYLT1 (GeneID 64131)","TNF reporter robust z-score":"2.99 (active)"}
{"Gene":"XYLT1 (GeneID 64131)","TNF reporter robust z-score":-0.19}
{"Gene":"XYLT1 (GeneID 64131)","TNF reporter robust z-score":-0.45}
{"Gene":"XYLT1 (GeneID 64131)","TNF reporter robust z-score":1.76}
{"Gene":"MISO1 (GeneID 285315)","TNF reporter robust z-score":-0.46}
{"Gene":"MISO1 (GeneID 285315)","TNF reporter robust z-score":0.87}
{"Gene":"MISO1 (GeneID 285315)","TNF reporter robust z-score":-0.99}
{"Gene":"MISO1 (GeneID 285315)","TNF reporter robust z-score":0.49}
{"Gene":"ALAD (GeneID 210)","TNF reporter robust z-score":0.5}
{"Gene":"ALAD (GeneID 210)","TNF reporter robust z-score":1.05}
{"Gene":"ALAD (GeneID 210)","TNF reporter robust z-score":0.49}
{"Gene":"ALAD (GeneID 210)","TNF reporter robust z-score":0.87}
{"Gene":"MATN4 (GeneID 8785)","TNF reporter robust z-score":0.12}
{"Gene":"MATN4 (GeneID 8785)","TNF reporter robust z-score":-0.19}
{"Gene":"MATN4 (GeneID 8785)","TNF reporter robust z-score":-0.04}
{"Gene":"MATN4 (GeneID 8785)","TNF reporter robust z-score":-0.07}
{"Gene":"TAS2R19 (GeneID 259294)","TNF reporter robust z-score":0.01}
{"Gene":"TAS2R19 (GeneID 259294)","TNF reporter robust z-score":0.45}
{"Gene":"TAS2R19 (GeneID 259294)","TNF reporter robust z-score":0.33}
{"Gene":"TAS2R19 (GeneID 259294)","TNF reporter robust z-score":-0.12}
{"Gene":"ZNF24 (GeneID 7572)","TNF reporter robust z-score":"-1.72 (active)"}
{"Gene":"ZNF24 (GeneID 7572)","TNF reporter robust z-score":-1.44}
{"Gene":"ZNF24 (GeneID 7572)","TNF reporter robust z-score":"-1.57 (active)"}
{"Gene":"ZNF24 (GeneID 7572)","TNF reporter robust z-score":-0.76}
{"Gene":"TP53INP2 (GeneID 58476)","TNF reporter robust z-score":"3.35 (active)"}
{"Gene":"TP53INP2 (GeneID 58476)","TNF reporter robust z-score":-0.78}
{"Gene":"TP53INP2 (GeneID 58476)","TNF reporter robust z-score":1.96}
{"Gene":"TP53INP2 (GeneID 58476)","TNF reporter robust z-score":-0.68}
{"Gene":"OR14A16 (GeneID 284532)","TNF reporter robust z-score":0.48}
{"Gene":"OR14A16 (GeneID 284532)","TNF reporter robust z-score":0.36}
{"Gene":"OR14A16 (GeneID 284532)","TNF reporter robust z-score":1.19}
{"Gene":"OR14A16 (GeneID 284532)","TNF reporter robust z-score":0.4}
{"Gene":"KCNA10 (GeneID 3744)","TNF reporter robust z-score":-1.21}
{"Gene":"KCNA10 (GeneID 3744)","TNF reporter robust z-score":0.02}
{"Gene":"KCNA10 (GeneID 3744)","TNF reporter robust z-score":-0.57}
{"Gene":"KCNA10 (GeneID 3744)","TNF reporter robust z-score":-0.51}
{"Gene":"POLD2 (GeneID 5425)","TNF reporter robust z-score":1.53}
{"Gene":"POLD2 (GeneID 5425)","TNF reporter robust z-score":2.54}
{"Gene":"POLD2 (GeneID 5425)","TNF reporter robust z-score":0.45}
{"Gene":"POLD2 (GeneID 5425)","TNF reporter robust z-score":1.88}
{"Gene":"ARMC2 (GeneID 84071)","TNF reporter robust z-score":-1.09}
{"Gene":"ARMC2 (GeneID 84071)","TNF reporter robust z-score":-0.93}
{"Gene":"ARMC2 (GeneID 84071)","TNF reporter robust z-score":-0.83}
{"Gene":"ARMC2 (GeneID 84071)","TNF reporter robust z-score":-0.8}
{"Gene":"PCDHGB1 (GeneID 56104)","TNF reporter robust z-score":"5.24 (active)"}
{"Gene":"PCDHGB1 (GeneID 56104)","TNF reporter robust z-score":2.66}
{"Gene":"PCDHGB1 (GeneID 56104)","TNF reporter robust z-score":"2.96 (active)"}
{"Gene":"PCDHGB1 (GeneID 56104)","TNF reporter robust z-score":1.9}
